The list shows a part of the results. At the low end of the ranking the order means little. A value given as a limit tells only on which side of the number the result lay.

One assay addresses T1, PUM1 PUF domain R1-QFR R2-VFQ R7-NPG S863Q + R864F + Q867R + N899V + Y900F + S1079N + N1080P + E1083G (UniProt Q14671).
T1 sequence: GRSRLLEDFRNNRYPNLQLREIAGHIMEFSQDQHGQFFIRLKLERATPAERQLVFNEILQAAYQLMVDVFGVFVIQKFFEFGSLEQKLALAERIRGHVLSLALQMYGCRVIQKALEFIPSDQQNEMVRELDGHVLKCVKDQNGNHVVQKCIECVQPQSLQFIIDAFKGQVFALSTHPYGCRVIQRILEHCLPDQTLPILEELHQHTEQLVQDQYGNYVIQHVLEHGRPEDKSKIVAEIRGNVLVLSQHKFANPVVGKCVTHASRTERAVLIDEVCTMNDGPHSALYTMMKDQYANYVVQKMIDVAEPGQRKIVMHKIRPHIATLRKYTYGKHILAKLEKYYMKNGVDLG
The following applies: yeast three-hybrid, YBZ-1, SC-Leu-His + 0.5 mM 3-AT, 4 days.
As to “GGCUAGAACUAGUGGAUCCCCCGGCGCCCGGCGGCUCGAGCCCGGGUAAGGUGAGAUUGUCUGCAUGCCGCCGGGCGCCAUGCCUGCAGGUCGACUCUAGAAAACAUG”, the binding signal (log2 enrichment (interaction score)) was -5.33.

For “GGCUAGAACUAGUGGAUCCCCCGGCGCCCGGCGGCUCGAGCCCGGGUAAGUAUUCGGAGUCUGCAUGCCGCCGGGCGCCAUGCCUGCAGGUCGACUCUAGAAAACAUG”, the binding signal (log2 enrichment (interaction score)) is under -6.05.

Turning to “GGCUAGAACUAGUGGAUCCCCCGGCGCCCGGCGGCUCGAGCCCGGGUAAGUGGUGGACGUCUGCAUGCCGCCGGGCGCCAUGCCUGCAGGUCGACUCUAGAAAACAUG”, the binding signal (log2 enrichment (interaction score)) is -4.93.

The target in the next assay is T2, PUM1 PUF domain R2-VFQ R3-THE R4-TFR N899V + Y900F + C935T + R936H + Q939E + N971T + H972F + Q975R (UniProt Q14671).
T2 sequence: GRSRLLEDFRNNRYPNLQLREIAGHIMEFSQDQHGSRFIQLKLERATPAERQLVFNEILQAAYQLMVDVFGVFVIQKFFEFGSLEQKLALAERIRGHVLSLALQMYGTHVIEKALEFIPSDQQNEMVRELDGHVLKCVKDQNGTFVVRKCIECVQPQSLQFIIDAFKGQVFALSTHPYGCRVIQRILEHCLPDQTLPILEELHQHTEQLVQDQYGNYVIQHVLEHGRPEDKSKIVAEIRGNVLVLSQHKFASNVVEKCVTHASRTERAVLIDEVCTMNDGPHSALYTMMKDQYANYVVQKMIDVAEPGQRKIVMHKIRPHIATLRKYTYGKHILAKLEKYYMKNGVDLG
The following applies: yeast three-hybrid, YBZ-1, SC-Leu-His + 0.5 mM 3-AT, 4 days.
“GGCUAGAACUAGUGGAUCCCCCGGCGCCCGGCGGCUCGAGCCCGGGUAAGGGAAGAUAGUCUGCAUGCCGCCGGGCGCCAUGCCUGCAGGUCGACUCUAGAAAACAUG”: the binding signal (log2 enrichment (interaction score)) was -5.22.

On to “GGCUAGAACUAGUGGAUCCCCCGGCGCCCGGCGGCUCGAGCCCGGGUAAGUGUAGGUAGUCUGCAUGCCGCCGGGCGCCAUGCCUGCAGGUCGACUCUAGAAAACAUG”, for which the binding signal (log2 enrichment (interaction score)) was -5.63.

As for “GGCUAGAACUAGUGGAUCCCCCGGCGCCCGGCGGCUCGAGCCCGGGUAAGUGGUCGUAGUCUGCAUGCCGCCGGGCGCCAUGCCUGCAGGUCGACUCUAGAAAACAUG”, the binding signal (log2 enrichment (interaction score)) is -5.73.

In the case of “GGCUAGAACUAGUGGAUCCCCCGGCGCCCGGCGGCUCGAGCCCGGGUAAGUUGCUAUAGUCUGCAUGCCGCCGGGCGCCAUGCCUGCAGGUCGACUCUAGAAAACAUG”, the binding signal (log2 enrichment (interaction score)) was -5.65.

Take “GGCUAGAACUAGUGGAUCCCCCGGCGCCCGGCGGCUCGAGCCCGGGUAAGCAGAUAUAGUCUGCAUGCCGCCGGGCGCCAUGCCUGCAGGUCGACUCUAGAAAACAUG”: the binding signal (log2 enrichment (interaction score)) was -6.39.

The record behind these values is paper PMC8384837.
